Measurements reported in PubChem BioAssay AID1259261 (Sanger Institute, 2017)
The whole screen tested 794 reagents; below is a random part of them. 10 of all reagents (1.3%) count as active. 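Calls reflect knock-down alone without drug; synergy scores with BYL719, cetuximab or trametinib do not affect calls.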 Not all columns of the deposit are shown. Reagent sequences are not shown. Not stated in the record: the amount of reagent, the time to read-out.

Aim: 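Kinase knock-downs that kill colorectal cancer cells or boost targeted drugs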 (primary screen)
System: HCC2998 human colorectal cancer cells
Reagent: siRNA pool against human genes
Challenge: anchor drugs BYL719 1 µM, cetuximab 5 µg/ml or trametinib 10 nM, each compared with DMSO vehicle
Detection: 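Viability as fraction of non-targeting control plus robust z-score without drug; synergy scores compare knock-down plus drug against each alone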
Scale: viability z-score, knock-down alone: higher = more viable cells than controls
Rule for the call: 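Essential when the siRNA-alone viability robust z-score is below -3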
Calls: active = essential; inactive = no change

no.	gene	viability z-score, knock-down alone	activity call
1	VRK3 (GeneID 51231)	-0.0654	inactive
2	COMMD3 (GeneID 23412)	1.21	inactive
3	CIB2 (GeneID 10518)	-1.98	inactive
4	GK2 (GeneID 2712)	0.891	inactive
5	MAPK4 (GeneID 5596)	0.384	inactive
6	PDIK1L (GeneID 149420)	-1.2	inactive
7	LIMK1 (GeneID 3984)	-0.0484	inactive
8	CDKL4 (GeneID 344387)	-0.652	inactive
9	TAOK1 (GeneID 57551)	-0.879	inactive
10	PIK3CA (GeneID 5290)	0.324	inactive
11	DBF4 (GeneID 10926)	0.839	inactive
12	ACO1 (GeneID 48)	-0.0589	inactive
13	AKT3 (GeneID 10000)	-2.44	inactive
14	MAP2K5 (GeneID 5607)	1.21	inactive
15	TRIB2 (GeneID 28951)	0.358	inactive
16	EPHA1 (GeneID 2041)	0.377	inactive
17	RNASEL (GeneID 6041)	1.18	inactive
18	HIPK4 (GeneID 147746)	0.824	inactive
19	LRRK1 (GeneID 79705)	-0.988	inactive
20	MAGI3 (GeneID 260425)	-0.603	inactive

In a second layout: results already given.
gene	viability z-score, knock-down alone	activity call
LRRK1 (GeneID 79705)	-0.988	inactive
MAGI3 (GeneID 260425)	-0.603	inactive
